Measured values from the supplement of paper PMC3334620.
Whole data set: some 33,000 sequences, median “E-score (-0.5 to 0.5)” near -0.0059, cut for the highest 2% near 0.26. The list shows a part of the results.

These sequences were tested against T1, Cin5 (UniProt P40917) (assay: PBM E-score (8-mer binding enrichment) (E-score (-0.5 to 0.5)); higher = stronger / more preferred TF binding). Details: protein concentration: 100 nM; construct: GST-full length.
T1 sequence: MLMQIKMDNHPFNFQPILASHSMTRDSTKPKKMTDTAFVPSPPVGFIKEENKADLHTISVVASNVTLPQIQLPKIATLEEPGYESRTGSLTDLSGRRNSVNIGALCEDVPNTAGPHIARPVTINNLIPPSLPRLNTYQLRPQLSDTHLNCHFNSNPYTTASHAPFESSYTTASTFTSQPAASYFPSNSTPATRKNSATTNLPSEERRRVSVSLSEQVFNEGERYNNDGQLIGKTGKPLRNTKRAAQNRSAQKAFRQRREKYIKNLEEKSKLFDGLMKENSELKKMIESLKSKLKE
Summary of the method: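 Detection of bound protein used fluorescent anti-GST, with scans normalised by masliner. The proteins were GST-tagged yeast transcription factors applied at about 100-200 nM to universal all-10-mer Agilent arrays made double-stranded by primer extension. Each ungapped eight-base word, pooled with its reverse complement, was scored with an E-score from the Universal PBM Analysis Suite.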

| Sequence | PBM E-score |
| --- | --- |
| TTAAAAAA | 0.0101 |
| CACACTAC | 0.00364 |
| AATTTAAC | 0.179 |
| CATGTGCC | -0.0579 |
| CCGTATCC | -0.112 |
| GTCCCGTA | -0.206 |
| ATCCACGG | 0.0541 |
| CCCATGGC | -0.142 |
| GTCAAACA | -0.113 |
| AATTTGCA | 0.081 |
| GCGTAACA | 0.0788 |
| AGTTTGTG | -0.0154 |
| CTCATGAA | 0.0624 |
| ATAAACAA | 0.257 |
| AGGGATAT | -0.0496 |
| CAGGGGCA | -0.0356 |
| CTCCTTCA | -0.264 |
| AAGGATTA | 0.159 |
| GTACATTA | 0.135 |
| AGGTTGAC | -0.0896 |
| ATCAGACA | 0.0704 |
| AACTTGCG | -0.0652 |
| CTAGTTAC | 0.00557 |
| AGCAACCG | -0.0611 |
| CATCAGGG | 0.0814 |

| Sequence | PBM E-score |
| --- | --- |
| ACCCTCCA | -0.136 |
| AACGGGCT | -0.23 |
| GGTGATTA | 0.213 |
| AATCGGCC | 0.0309 |
| CCGATCCA | 0.0442 |
| GAGTCGCA | -0.218 |
| CAGGTGAG | -0.121 |
| GGCAATGA | -0.0311 |
| AAAGTTTC | 0.0422 |
| CAAGTACA | 0.0428 |
| CACGCTGG | -0.116 |
| CTGACTTC | 0.00213 |
| GGCCCCAC | -0.183 |
| AAACCTGT | 0.0662 |
| ACATATTC | 0.241 |
| CAGACGGA | -0.0358 |
| ACTAGCAT | 0.0848 |
| CGCATACC | 0.126 |
| AGGCGTAA | 0.0228 |
| AAGGCATG | -0.156 |
| CCAACGTC | -0.147 |
| CCTTCTCC | -0.251 |
| CTCAATTA | 0.143 |
| CGACACGA | 0.0696 |
| AACGAAGC | -0.00547 |

| Sequence | PBM E-score |
| --- | --- |
| ACCTGCAT | 0.0415 |
| CTAATAAG | 0.0511 |
| AGGCAGTC | -0.145 |
| GGTCCGCA | -0.0684 |
| ATCCTCAT | -0.024 |
| TCCCAAGA | -0.0379 |
| GTAATGCA | -1e-05 |
| GTGATGAA | 0.0186 |
| GACCGGCA | -0.214 |
| ACCTACAC | -0.109 |
| CCAGAGTC | -0.0257 |
| GTAACGCA | 0.0946 |
| ATTCAGTA | 0.17 |
| ACACGGGT | -0.032 |
| CCAGCTAA | -0.0794 |
| ATGTCTTA | 0.109 |
| CGAACGGA | 0.00699 |
| CACATGAC | -0.0762 |
| AATAATGT | 0.273 |
| AAAAGCTG | -0.148 |
| ACAAACAT | 0.139 |
| ATAGTGAA | 0.138 |
| CCCGAGCA | -0.113 |
| CGGACAAC | 0.135 |
| GAGTACAA | 0.126 |

Quoted from the listing.
ATTCAGTA | PBM E-score: 0.17
CCCGAGCA | PBM E-score: -0.113
ATGTCTTA | PBM E-score: 0.109
CGAACGGA | PBM E-score: 0.00699
ACCTACAC | PBM E-score: -0.109
CACATGAC | PBM E-score: -0.0762

(continued)

| Sequence | PBM E-score |
| --- | --- |
| CATACCCG | -0.0196 |
| GACATGGC | 0.0245 |
| GGAATCAA | 0.0945 |
| ACACGCCC | -0.148 |
| CCAAGTGC | -0.168 |
| GACCCGGA | -0.305 |
| AGAACACG | 0.0977 |
| AACGCGTA | 0.0133 |
| TGCTGGAA | -0.0131 |
| GGCCGAGA | 0.0879 |
| ACGCCAAC | -0.179 |
| ACCTTGCC | -0.0657 |
| GTTACTGA | -0.0293 |
| GGCGTTGA | 0.0231 |
| CAACACAG | -0.0269 |
| CGGTTGAG | 0.016 |
| GAGTCGCC | -0.216 |
| GGTACTGA | -0.154 |
| ACTATTCC | 0.0567 |
| ATGTGCGG | 0.0798 |
| CGATTTAG | 0.182 |
| GGCACTAC | -0.205 |
| AAGTCGGT | -0.125 |
| GTTCGTTA | 0.0785 |
| GCGCTAAA | 0.0631 |

| Sequence | PBM E-score |
| --- | --- |
| GTCTGGGA | -0.247 |
| AAATAGAA | -0.0117 |
| CCCTTGGC | -0.24 |
| CGAGTAAA | 0.0542 |
| AAATATTC | 0.183 |
| GGGTAACC | -0.296 |
| AATCGTAT | 0.185 |
| CTAGGCTA | -0.263 |
| AGCGGCAC | -0.129 |
| CATGCAGA | 0.0168 |
| AGGTGTAG | -0.106 |
| CGCGTTTC | -0.119 |
| AGCGGTGC | -0.206 |
| GATATTAC | 0.315 |
| CCCTATCA | 0.0245 |
| ACCTATGA | -0.199 |
| ACAATTGT | 0.188 |
| AACCACTC | -0.0101 |
| AGTAACCA | 0.102 |
| CGAGCGAC | -0.191 |
| AAGCATCT | 0.0862 |
| AACTAACA | 0.226 |
| AATATCCG | 0.104 |
| GTCAGTAA | 0.0254 |
| AGAGCTAT | -0.183 |

Some of the entries so far, as tab-separated lines.
Sequence	PBM E-score
AAATAGAA	-0.0117
CCCTTGGC	-0.24

The results go on.

| Sequence | PBM E-score |
| --- | --- |
| ACCGGAAG | 0.175 |
| CATCCCTA | 0.122 |
| CCTACTGC | -0.164 |
| GTCTACAC | -0.128 |
| CGCTCTAG | -0.28 |
| AGGTTCCC | -0.268 |
| CAGGACGA | -0.0233 |
| AAACTGCA | 0.0472 |
| ACGAGAAT | 0.183 |
| CAGTATTA | 0.294 |
| AATTGACC | 0.0528 |
| CTATCCCC | -0.213 |
| CGCACTAG | -0.129 |
| AACATCCC | 0.0021 |
| GGGACGCA | -0.269 |
| CAACCTAC | -0.0326 |
| AAGTAGGG | 0.123 |
| AACTTTTC | 0.0286 |
| AGGGCCGG | -0.223 |
| AACTGGGC | -0.214 |
| GTGCAGCA | -0.207 |
| CATGGGCA | -0.0955 |
| AATTCACG | -0.0153 |
| CCCGTGGC | -0.253 |
| GCCACCTA | -0.175 |

| Sequence | PBM E-score |
| --- | --- |
| AATCCAAA | 0.161 |
| GCAAGTGA | 0.0515 |
| TAGGACAA | 0.0959 |
| AGGTTACA | 0.0231 |
| GCTGTTCA | -0.0739 |
| GAATACAC | -0.0125 |
| ACAGAATA | 0.179 |
| CCGGGGAC | -0.257 |
| GTCTATCA | 0.0834 |
| ACAGGAAA | 0.168 |
| ACCTCGAA | -0.0141 |
| ACATGATA | 0.187 |
| ATTAGCCA | 0.135 |
| ACATTACC | 0.0907 |
| ACGTAGCC | -0.325 |
| ATTTAAGA | -0.0445 |
| GGGCTTAC | 0.21 |
| AAGGTGTG | 0.0155 |
| CCCCTCAA | 0.043 |
| GTACCCCA | 0.0392 |
| CTACGTCC | -0.205 |
| ACAGGGCT | -0.334 |
